# Results taken from PubChem BioAssay AID248 (DTP/NCI, 2004).
# The list does not hold the whole screen: it is rich in T/C values a quarter to a half above the control, in often repeated tests (any T/C) and in doses without a T/C. Other doses and runs of a compound stand elsewhere. T/C gives the treated animals as a percentage of the vehicle group. Some entries give survivors of the animals treated and no T/C: the source holds a T/C of zero for them, seemingly a mark for toxic or unscored doses. Some doses without a T/C left all or most animals alive at the check, yet need not have been tolerated: the source hardly ever lists a survival T/C far under the control, and the zero likely stands for such cases as well. Survivors were counted at the toxicity check, usually on the fifth day, unless a day is given; later deaths do not show. Schedule codes are those of the source, read here as Q, the interval in days (D) or hours (H), X, the number of doses. Where survival is the endpoint, the PubChem record calls one and a half times the control and up active, and a quarter to a half above the control has no call in these data; cut-offs in other NCI protocols can differ.
# Tested on: L1210 leukemia ip in BDF1 mice, survival T/C
# Assay: NCI In Vivo Anticancer Drug Screen. Data for tumor model L1210 Leukemia (intraperitoneal) in B6D2F1 (BDF1) mice
# Details: T/C endpoint: mean survival time, higher T/C = longer survival
# [1] = dose: 50.0 mg/kg/injection, schedule: Q04DX003 (ip), vehicle: saline with Tween-80
# [2] = dose: 100.0 mg/kg/injection, schedule: Q04DX003 (ip), vehicle: saline with Tween-80
# [3] = dose: 200.0 mg/kg/injection, schedule: Q04DX003 (ip), vehicle: saline with Tween-80
# [4] = dose: 400.0 mg/kg/injection, schedule: Q01DX001 (ip), vehicle: acetone
# [5] = dose: 400.0 mg/kg/injection, schedule: Q04DX003 (ip), vehicle: saline with Tween-80
# [6] = dose: 100.0 mg/kg/injection, schedule: Q01DX009 (ip), vehicle: Klucel (hydroxypropylcellulose) (HPC)
# [7] = dose: 200.0 mg/kg/injection, schedule: Q01DX009 (ip), vehicle: Klucel (hydroxypropylcellulose) (HPC)
# [8] = dose: 400.0 mg/kg/injection, schedule: Q04DX002 (ip), vehicle: saline with Tween-80
# [9] = dose: 400.0 mg/kg/injection, schedule: Q01DX009 (ip), vehicle: saline with Tween-80
# [10] = dose: 100.0 mg/kg/injection, schedule: Q01DX001 (ip), vehicle: saline
# [11] = dose: 200.0 mg/kg/injection, schedule: Q01DX001 (ip), vehicle: saline
# [12] = dose: 400.0 mg/kg/injection, schedule: Q01DX001 (ip), vehicle: saline
# [13] = dose: 300.0 mg/kg/injection, schedule: Q01DX001 (ip), vehicle: saline
# [14] = dose: 400.0 mg/kg/injection, schedule: Q04DX003 (ip), vehicle: Klucel (hydroxypropylcellulose) (HPC)
structure (smiles),measurement,setting,value
C/C(CCCCl)=N/NC(N)=S,survivor count,"dose: 25.0 mg/kg/injection, schedule: Q01DX009 (ip), vehicle: saline",6 of 6
same,survivor count,[1],5 of 6
same,survivor count,[2],6 of 6
same,survivor count,[3],1 of 6
same,survivor count,[4],2 of 6
C1CCC(CCNCCC2CCCCC2)CC1,survivor count,"dose: 40.0 mg/kg/injection, schedule: Q01DX001 (ip), vehicle: saline",2 of 6
same,survivor count,"dose: 80.0 mg/kg/injection, schedule: Q01DX001 (ip), vehicle: saline",1 of 6
CC(C)(C)c1ccc(N)cc1Br,survivor count,"dose: 6.25 mg/kg/injection, schedule: Q01DX009 (ip), vehicle: saline with Tween-80",6 of 6
same,survivor count,"dose: 100.0 mg/kg/injection, schedule: Q01DX009 (ip), vehicle: saline with Tween-80",6 of 6
same,survivor count,"dose: 200.0 mg/kg/injection, schedule: Q01DX009 (ip), vehicle: saline with Tween-80",0 of 6
same,survivor count,[5],2 of 6
CC(SS(=O)(=O)O)C(N)=NCc1ccccc1 (centres undefined),survivor count,"dose: 100.0 mg/kg/injection, schedule: Q04DX002 (ip), vehicle: Klucel (hydroxypropylcellulose) (HPC)",3 of 3
same,survivor count,"dose: 200.0 mg/kg/injection, schedule: Q04DX002 (ip), vehicle: Klucel (hydroxypropylcellulose) (HPC)",2 of 3
same,survivor count,"dose: 400.0 mg/kg/injection, schedule: Q04DX002 (ip), vehicle: Klucel (hydroxypropylcellulose) (HPC)",1 of 3
N#Cc1nc(C#N)c(C#N)nc1C#N,survivor count,[6],0 of 6
same,survivor count,[7],0 of 6
same,survivor count,"dose: 400.0 mg/kg/injection, schedule: Q01DX009 (ip), vehicle: Klucel (hydroxypropylcellulose) (HPC)",0 of 6
CC1(C)c2ccccc2C(C)(C)[N+]1(C)C,survivor count,"dose: 200.0 mg/kg/injection, schedule: Q01DX001 (ip), vehicle: other",3 of 6
same,survivor count,"dose: 400.0 mg/kg/injection, schedule: Q01DX001 (ip), vehicle: other",0 of 6
N#C/C(=C\c1ccc(-c2ccccc2)cc1)c1ccc(Cl)cc1,survivor count,"dose: 25.0 mg/kg/injection, schedule: Q01DX009 (ip), vehicle: saline with Tween-80",6 of 6
same,survivor count,"dose: 50.0 mg/kg/injection, schedule: Q01DX009 (ip), vehicle: saline with Tween-80",6 of 6
Oc1ccc(C=NCC2CCCC[N-]2)c(O)c1.Oc1ccc(C=NCC2CCCC[N-]2)c(O)c1.[Ni+2] (centres undefined),survivor count,[5],6 of 6
COc1ccc([N+](=O)[O-])cc1NC(=O)Nc1ccc(SC)cc1,survivor count,[6],6 of 6
Cc1ccc(S(=O)(=O)OCCN(CCOS(=O)(=O)c2ccc(C)cc2)c2cc(OCc3ccccc3)cc(OCc3ccccc3)c2)cc1,survivor count,"dose: 200.0 mg/kg/injection, schedule: Q01DX009 (ip), vehicle: water",6 of 6
CN(C)c1ncnc2c1nnn2C1OC(CO)C(O)C1O (centres undefined),T/C,"dose: 600.0 mg/kg/injection, schedule: Q01DX001 (ip), vehicle: saline",132 % of control
CC(=O)[O][Pb]([O]C(C)=O)([c]1ccccc1)[c]1ccccc1,survivor count,[8],2 of 3
Oc1ccc(Nc2ccnc3cc(Cl)ccc23)cc1CN1CCCC1,survivor count,"dose: 100.0 mg/kg/injection, schedule: Q04DX003 (ip), vehicle: saline",5 of 6
same,survivor count,"dose: 170.0 mg/kg/injection, schedule: Q01DX009 (ip), vehicle: saline",0 of 6
same,survivor count,"dose: 200.0 mg/kg/injection, schedule: Q04DX003 (ip), vehicle: saline",2 of 6
same,survivor count,"dose: 400.0 mg/kg/injection, schedule: Q04DX003 (ip), vehicle: saline",3 of 6
CC(C)(C)c1ccc(OCC(=O)O)c(Cl)c1,survivor count,[9],0 of 6
COc1ccc(S(=O)(=O)NC(=O)NC23CC4CC(CC(C4)C2)C3)cc1,survivor count,[7],6 of 6
CCC1CSC(=S)N1 (centres undefined),survivor count,"dose: 12.5 mg/kg/injection, schedule: Q01DX009 (ip), vehicle: acetone",3 of 6
same,survivor count,"dose: 18.0 mg/kg/injection, schedule: Q04DX003 (ip), vehicle: saline",6 of 6
same,survivor count,"dose: 28.0 mg/kg/injection, schedule: Q04DX003 (ip), vehicle: saline",1 of 6
same,survivor count,"dose: 40.0 mg/kg/injection, schedule: Q04DX003 (ip), vehicle: saline",0 of 6
same,survivor count,[10],0 of 6
same,survivor count,[11],0 of 6
same,survivor count,[12],0 of 6
N#Cc1c(F)c(F)c(C(F)(F)F)c(F)c1F,survivor count,"dose: 100.0 mg/kg/injection, schedule: Q01DX009 (ip), vehicle: other",2 of 6
same,survivor count,"dose: 200.0 mg/kg/injection, schedule: Q01DX009 (ip), vehicle: other",0 of 6
same,survivor count,"dose: 400.0 mg/kg/injection, schedule: Q01DX009 (ip), vehicle: other",0 of 6
O=C(Nc1ccc(O)cc1)OCc1ccccc1,T/C,"dose: 100.0 mg/kg/injection, schedule: Q04DX003 (ip), vehicle: Klucel (hydroxypropylcellulose) (HPC)",135 % of control
same,survivor count,"dose: 150.0 mg/kg/injection, schedule: Q04DX003 (ip), vehicle: Klucel (hydroxypropylcellulose) (HPC)",5 of 6
CS(=O)(=O)C(Cl)(Cl)S(C)(=O)=O,survivor count,[2],2 of 6
same,survivor count,[3],0 of 6
same,survivor count,[5],0 of 6
ClCc1cccc2c(CCl)cccc12,survivor count,[11],2 of 4
same,survivor count,[12],1 of 4
C1=C\C[n+]2ccccc2-c2cccc[n+]2C/1,survivor count,"dose: 75.0 mg/kg/injection, schedule: Q01DX001 (ip), vehicle: saline",0 of 6
same,survivor count,"dose: 150.0 mg/kg/injection, schedule: Q01DX001 (ip), vehicle: saline",0 of 6
same,survivor count,[13],0 of 6
Clc1c(CI)ccc(CI)c1Cl,survivor count,[6],0 of 6
same,survivor count,"dose: 200.0 mg/kg/injection, schedule: Q04DX003 (ip), vehicle: Klucel (hydroxypropylcellulose) (HPC)",4 of 6
same,survivor count,[14],1 of 6
CCOC(=O)C1CN(C2CCCCC2)CCC1=O (centres undefined),survivor count,[13],3 of 6
O=C1O/C(=C\c2ccccc2)C(O)=C1c1ccccc1,survivor count,"dose: 200.0 mg/kg/injection, schedule: Q01DX001 (ip), vehicle: saline with Tween-80",0 of 3
same,survivor count,"dose: 400.0 mg/kg/injection, schedule: Q01DX001 (ip), vehicle: saline with Tween-80",0 of 3
CCC1(c2ccccc2)C(=O)N(C)C(=O)N(CBr)C1=O (centres undefined),survivor count,[9],0 of 3
CC(/C=N/NC(N)=S)Cc1ccc(C(C)C)cc1 (centres undefined),survivor count,"dose: 25.0 mg/kg/injection, schedule: Q04DX003 (ip), vehicle: saline with Tween-80",1 of 6
same,survivor count,"dose: 40.0 mg/kg/injection, schedule: Q01DX009 (ip), vehicle: alcohol",5 of 6
same,survivor count,[1],0 of 6
O=c1c(Cl)c(C(Cl)(Cl)Cl)c2ccccc2n1O,survivor count,[14],3 of 3
NC(=S)N/N=C/c1ccc(OC(F)(F)F)cn1,T/C,"dose: 100.0 mg/kg/injection, schedule: Q04DX002 (ip), vehicle: saline with Tween-80",142 % of control
same,survivor count,"dose: 200.0 mg/kg/injection, schedule: Q04DX002 (ip), vehicle: saline with Tween-80",2 of 3
same,survivor count,[8],0 of 3
Clc1ccc2c(c1)Cc1cc(N=Cc3ccccc3Cl)ccc1-2,survivor count,"dose: 100.0 mg/kg/injection, schedule: Q01DX001 (ip), vehicle: acetone",6 of 6
same,survivor count,[10],6 of 6
same,survivor count,"dose: 200.0 mg/kg/injection, schedule: Q01DX001 (ip), vehicle: acetone",6 of 6
same,survivor count,[4],6 of 6
same,survivor count,[12],3 of 6
same,survivor count,"dose: 510.0 mg/kg/injection, schedule: Q04DX003 (ip), vehicle: saline with Tween-80",2 of 6
same,survivor count,"dose: 770.0 mg/kg/injection, schedule: Q04DX003 (ip), vehicle: saline with Tween-80",1 of 6
CN(C)C(=O)c1cccc([N+](=O)[O-])c1,survivor count,[5],6 of 6
